Reference: PubChem BioAssay AID602196 (INSERM, 2012)
Screen: 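Modifiers of cisplatin sensitivity in A549 cells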. System: human A549 lung cancer cells. Reagent: siRNA pair against human genes. Timing: 48 h transfection before cisplatin; time from cisplatin to read-out not stated. Challenge: cisplatin at a dose killing half of control-siRNA cells; exact dose and duration not given. Measurement: 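Cisplatin cell death as a shift from the 50% death seen with control siRNA; siRNAs toxic or growth-blocking alone scored 0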. Scale: two-siRNA summed score (-2 to +2): higher = both siRNAs protect from cisplatin killing; -2 means both sensitise. Hit rule: 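siRNAs harmful alone (LDH or WST-1) get 0; others get +1 for less and -1 for more cisplatin killing; genes are active when the two siRNAs give the same sign, summing to ±2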. Meaning of the calls: active = both siRNAs shift cisplatin killing the same way; inactive = no consistent shift, or siRNA harmful alone.
In all, the deposit lists about 23,000 reagents; below is an unselected part. Of all reagents, 455 (2%) got an active call. 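Active includes both protection and sensitisation; some change values fall well beyond the stated -50 to +50 range.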 A number with no mark means an inactive call. Not all columns of the deposit are shown. Not stated in the record: the amount of reagent.

| gene | two-siRNA summed score (-2 to +2) |
| --- | --- |
| ZFPM1 | 0 |
| RUVBL2 | 0 |
| LOC401599 | 0 |
| HS1BP3 | 0 |
| SORCS1 | 1 |
| EXOSC10 | 0 |
| SCAI | 0 |
| FRMD4B | 1 |
| ANKRD27 | 0 |
| KIF26A | 0 |
| DCTN2 | 1 |
| GIT1 | 1 |
| LOC122585 | 0 |
| PHLDA2 | 0 |
| ALDH3B1 | 0 |
| PRKAG2 | 0 |
| PEX11A | 0 |
| ZNF462 | 0 |
| LOC390565 | 0 |
| LOC400400 | 0 |
| ZNF251 | 0 |
| GP1BA | 0 |
| LGI4 | 0 |
| LOC144678 | 0 |
| PNCK | 0 |
| ZNF264 | 0 |

The list goes on (4 carried over from the part before).
| gene | two-siRNA summed score (-2 to +2) |
| --- | --- |
| LGI4 | 0 |
| LOC144678 | 0 |
| PNCK | 0 |
| ZNF264 | 0 |
| CSNK1G1 | 1 |
| OLFM4 | 0 |
| PIGQ | 0 |
| PATE2 | 0 |
| C1orf198 | 0 |
| ISY1 | 0 |
| EMILIN3 | 0 |
| LOC285193 | 0 |
| LOC344988 | 0 |
| CYP3A5 | 0 |
| RPL3 | 0 |
| ADAMTSL4 | 0 |
| CHRM2 | 1 |
